Laboratory results: PubChem BioAssay AID1259276 (Sanger Institute, 2017)
Screen: 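Kinome-wide search for kinases colon cancer cells need, and for drug partners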 (primary screen). Cell system: human C2BBe1 colorectal cancer cells. Reagent: siRNA pool against human genes. Conditions: DMSO vehicle, or one anchor drug: BYL719 at 1 µM, cetuximab at 5 µg/ml, or trametinib at 10 nM; exposure length not stated. Measurement: 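Viability after knock-down relative to non-targeting siRNA controls, averaged across replicates, given as ratio and control-derived robust z-score, with per-drug synergy scores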. Reading the numbers: viability robust z-score, siRNA alone and viability vs control, siRNA alone: higher = more viable cells after knock-down; synergy score with BYL719: higher = stronger combined killing with BYL719. Call rule: 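Called essential when knock-down alone gives a viability robust z-score below -3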. Meaning of the calls: active = essential (siRNA alone); inactive = no change (siRNA alone).
This is one part, drawn at random, of 794 reagents. 24 of all reagents (3%) were called active. 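Calls come only from the siRNA-alone arm; drug synergy scores do not affect them.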 Unmarked entries are inactive. No viability above 1 is reported: the scale is capped. Further read-outs or replicates are left out here. Not given: the amount of reagent, the time to read-out.

gene symbol | viability robust z-score, siRNA alone | viability vs control, siRNA alone | synergy score with BYL719
PRKCG | 0.472 | 1 | -0.121
TRIO | -0.565 | 0.935 | -0.0693
RUNX1 | 0.472 | 1 | 0.00626
RPS6KB1 | 0.472 | 1 | 0.0539
SCYL3 | -1.27 | 0.89 | -0.0502
PDK3 | -2.84 | 0.791 | -0.131
PDGFRL | 0.472 | 1 | -0.128
TP53RK | 0.472 | 1 | -0.123
DMPK | 0.472 | 1 | -0.142
VRK1 | 0.472 | 1 | -0.0605
WNK3 | -1.34 | 0.886 | -0.0655
PRPS1L1 | 0.472 | 1 | -0.0688
PIP5K1C | 0.472 | 1 | 0.122
EPHA6 | 0.35 | 0.992 | 0.419
SMAD4 | -0.632 | 0.93 | -0.202
ALDH18A1 | 0.472 | 1 | -0.123
GTF2H1 | 0.472 | 1 | 0.19
STK26 | 0.472 | 1 | -0.0603
CDKL4 | -1.36 | 0.885 | -0.0117
MAST2 | 0.472 | 1 | 0.047
BMAL1 | 0.472 | 1 | 0.241
PRKDC | 0.472 | 1 | -0.0298
DGKG | 0.472 | 1 | 0.0192
STK16 | 0.472 | 1 | -0.142
MAGI1 | 0.472 | 1 | 0.113
CAMKK1 | 0.472 | 1 | -0.079
ASPM | 0.472 | 1 | 0.193
PRKAR1B | 0.472 | 1 | 0.115
HK1 | 0.472 | 1 | -0.142
COMMD3 | 0.472 | 1 | 0.0601
WEE1 | -3.18 (active) | 0.77 | 0.26
MAP2K1 | 0.472 | 1 | -0.117
PKLR | 0.472 | 1 | -0.0214
PFKM | 0.286 | 0.988 | 0.154
MGA | -0.586 | 0.933 | -0.0687
THNSL1 | 0.472 | 1 | 0.068
MAP3K11 | 0.472 | 1 | 0.0962
ROR1 | 0.472 | 1 | 0.0611
EEF2K | -0.331 | 0.949 | 0.232
PAK6 | 0.406 | 0.996 | -0.0586
PI4K2B | 0.471 | 1 | 0.333
CDKN1C | 0.472 | 1 | -0.142
NUP107 | 0.472 | 1 | -0.142
DCLK3 | 0.472 | 1 | -0.00257
CALM3 | 0.472 | 1 | 0.101
HK3 | 0.472 | 1 | 0.0725
AXIN2 | 0.472 | 1 | -0.142
TPK1 | -1.19 | 0.895 | -0.0473
CSNK1A1 | 0.472 | 1 | 0.057
ACO1 | 0.127 | 0.978 | -0.0693

Looked up above:
For “viability vs control, siRNA alone”, WNK3 reads 0.886
For “viability vs control, siRNA alone”, COMMD3 has 1
HK1, synergy score with BYL719 = -0.142
Result for VRK1 under “synergy score with BYL719”: -0.0605
ACO1, viability vs control, siRNA alone → 0.978
For “viability vs control, siRNA alone”, STK26 reads 1
